The exact form of at least one protein or probe is not confirmed. For part of these data: Negatives hold for the conditions tested. For part of these data: Weaker means in comparison with the reference protein, sequence or condition of that experiment. For part of these data: At least one verdict was read from the data and is not stated in words by the source.

By UniProt entry, the sequences of proteins in these tests, tags left out. Residues count along the entry.
UniProt Q15365, whole entry: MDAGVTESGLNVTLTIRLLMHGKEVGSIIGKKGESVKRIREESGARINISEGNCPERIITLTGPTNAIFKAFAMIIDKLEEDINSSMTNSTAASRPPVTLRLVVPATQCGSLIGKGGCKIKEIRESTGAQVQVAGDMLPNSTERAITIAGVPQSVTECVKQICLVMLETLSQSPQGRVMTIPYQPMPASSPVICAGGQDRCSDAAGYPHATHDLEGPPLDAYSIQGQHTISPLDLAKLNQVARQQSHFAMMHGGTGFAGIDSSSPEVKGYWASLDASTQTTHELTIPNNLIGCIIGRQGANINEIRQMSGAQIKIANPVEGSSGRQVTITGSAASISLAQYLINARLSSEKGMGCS
UniProt Q15365, 1-169: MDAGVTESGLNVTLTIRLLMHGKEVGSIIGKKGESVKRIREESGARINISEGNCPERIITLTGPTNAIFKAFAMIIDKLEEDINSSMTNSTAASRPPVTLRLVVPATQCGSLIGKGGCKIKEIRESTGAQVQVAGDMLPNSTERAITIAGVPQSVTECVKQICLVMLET
UniProt Q15365, 269-356: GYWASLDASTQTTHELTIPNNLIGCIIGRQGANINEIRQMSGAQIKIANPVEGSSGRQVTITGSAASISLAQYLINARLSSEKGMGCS

Data set [1] addresses PCBP1 (wild type) (UniProt Q15365). Put plainly: MST. The conditions noted are these: >2-fold weaker than pH 6.4, MST: 20 mM MES pH 6.4, phosphate pH 7.0 or Tris-Cl pH 8.0, 100 mM NaCl, 25 C, recombinant protein, protein details: His tag (pET-His1a), removed by TEV, label: 5'-Cy5 (EMSA, MST), folded or branched DNA. Background: A gel shift assay detects complexes by their altered migration in electrophoresis.

A further data set addresses PCBP1 KH1+2 (UniProt Q15365). Briefly: MST. The conditions noted are these: no structural selectivity, MST: 20 mM MES pH 6.4, phosphate pH 7.0 or Tris-Cl pH 8.0, 100 mM NaCl, 25 C, recombinant protein, protein details: His tag (pET-His1a), removed by TEV, label: 5'-Cy5 (EMSA, MST), folded or branched DNA.
Data set [2] deals with PCBP1 (wild type) (UniProt Q15365). Briefly: EMSA. The following applies: pH 8.0, unfolded, single shift, more protein needed; EMSA: 20 mM Bis-Tris pH 6.4 or Tris-HCl pH 8.0, 100 mM NaCl, 0.25 mg/mL BSA, 25 C; recombinant protein; protein details: His tag (pET-His1a), removed by TEV; label: 5'-Cy5 (EMSA, MST); folded or branched DNA.
The next data set concerns the target PCBP1 KH3 (UniProt Q15365). Put plainly: bromine footprinting. The conditions noted are these: pH 6.4, no significant effect; recombinant protein; protein details: His tag (pET-His1a), removed by TEV; label: 3'-Cy5; folded or branched DNA.

As to AATCCCACCCCTCCCATCCCTT [cMYC-iMfs], the binding result with PCBP1 (wild type) [1] (pH 7.0, unfolded) is “binds more weakly”; with PCBP1 (wild type) [1] (pH 8.0, unfolded) it was “binds more weakly”; with PCBP1 KH1+2 (pH 7.0, unfolded), “binds”; with PCBP1 KH1+2 (pH 8.0, unfolded) it was “binds”; in the data set with PCBP1 (wild type) [2] it was “binds more weakly”.

On to “AATCCCACCCCTCCCATCCCTTTTT [cMYC-iMfs-Br]”, for which, in the data set with PCBP1 KH3, the binding result is “no binding”.

Take “CAGCCCCGCTCCCGCCCCCTTCCTCCCGCGCCCGCCCCT [BCL2-iMfs]”: the binding result with PCBP1 (wild type) [1] (pH 7.0, unfolded) is listed as “binds more weakly”; with PCBP1 (wild type) [1] (pH 8.0, unfolded) it was “binds more weakly”; with PCBP1 (wild type) [2], “binds more weakly”.

As to CCCTAACCCTAACCCTAACCCT [hTeloC-iMfs], the binding result is “binds more weakly” with PCBP1 (wild type) [1] (pH 7.0, unfolded); “binds more weakly” with PCBP1 (wild type) [1] (pH 8.0, unfolded); “binds more weakly” in the data set with PCBP1 (wild type) [2].

Take “TGTCCCCACACCCCTGTCCCCACACCCCTGT [ILPR-iMfs]”: the binding result with PCBP1 (wild type) [1] (pH 7.0, unfolded) is given as “binds more weakly”; with PCBP1 (wild type) [1] (pH 8.0, unfolded), “binds more weakly”; in the data set with PCBP1 (wild type) [2] it was “binds more weakly”.

The values above are taken from PMC12865031.
